Some results come without the dose or concentration used.
Key:
T. vaginalis = assay: In vitro antiprotozoal activity against T. vaginalis; assay type: cell-based; conditions: ratio antiprotozoal activity/mutagenicity relative to known compound I
Source text: (§1) Several 5-nitroimidazoles have been tested for in vitro antiprotozoal activity against T. foetus, T. vaginalis, and G. lamblia.

T. foetus = assay: In vitro antiprotozoal activity against T. foetus; assay type: cell-based; conditions: ratio antiprotozoal activity/mutagenicity relative to known compound I
Source text: as §1

Cn1c([N+](=O)[O-])cnc1COC(N)=O [I, reference compound]
Efficacy Index T. vaginalis (T. vaginalis): 1.0 | Efficacy Index T. foetus (T. foetus): 1.0

Source: US4678799A, “1,2(1,4)-dimethyl-4(2)-(2-hydroxyethyl)-5-nitro-imidazole antiprotozoal agents with reduced mutagenicity” (Merck & Co., Inc., priority 1984, dated 1987)
